Test results as given in patent publication US9120774B2 (University of Kansas, priority 2009, dated 2015).
At least one structure is not confirmed: it was looked up by name or label, or the drawing left a doubt.

Columns and labels:
[1] = test system: Hsp90-dependent client proteins ErbB2 (Her2) and p53 in SKBr3 breast cancer cells; assay: Degradation of ErbB2 and p53, Western blot in SKBr3 cells; assay type: cell-based
[2] = test system: primary cortical neurons exposed to Aβ25-35; assay: Protection against Aβ-induced toxicity in primary neurons (Live-Dead assay); assay type: cell-based, rat
Method: In this example, the neuroprotective effects of KU-1/A4 were determined in primary neurons derived from embryonic rat brain exposed to Aβ (10 μM) in the presence or absence of the test compound for 48 hours. The percentage of surviving neurons was determined by labeling with the fluorescent dyes calcein-AM and propidium iodide as previously described. […] The numbers of calcein-labeled live cells and propidium iodide-labeled dead neurons in several fields were visualized via fluorescence microscopy and counted as described.
Briefly, about 10 to 16 brains were removed from fetuses delivered by cesarean section, and the cortices dissected out. […] The effects of KU-1/A4, GA, Aβ, or the indicated combinations on neuronal viability were determined by monitoring cell survival using the Live-Dead assay as previously described. […] Digital images from 6 fields per dish were captured, and the number of viable (green) and dead (red) cells counted. All experiments were conducted with duplicate dishes from at least two neuronal preparations for each treatment, with about 1,000 cells analyzed/treatment condition. The data are expressed as the fraction of viable cells calculated from the total number of neurons counted under each treatment condition. The significance of differences between cultures exposed to various treatment conditions was determined using Student's t-test.

SMILES	activity as compared to novobiocin [1]	protection of neurons against Aβ [2]
COC1C(O)C(O)C(Oc2ccc3cc(NC(=O)c4ccc(O)c(CC=C(C)C)c4)c(=O)oc3c2C)OC1(C)C (centres unmarked) [DHN2]	improved activity as compared to novobiocin	
COC1=C2C[C@@H](C)C[C@H](OC)[C@H](O)[C@@H](C)/C=C(\C)[C@H](OC(N)=O)[C@@H](OC)/C=C\C=C(/C)C(=O)NC(=CC1=O)C2=O [GDA, Geldanamycin, reference compound]		partially protected
